We go through four substances from paper PMC3068692.

By UniProt entry, the sequences of proteins in these tests, tags left out. Where a name states a change or a piece, a line headed by the entry shows the natural chain unless it says otherwise.
UniProt P0AEC3: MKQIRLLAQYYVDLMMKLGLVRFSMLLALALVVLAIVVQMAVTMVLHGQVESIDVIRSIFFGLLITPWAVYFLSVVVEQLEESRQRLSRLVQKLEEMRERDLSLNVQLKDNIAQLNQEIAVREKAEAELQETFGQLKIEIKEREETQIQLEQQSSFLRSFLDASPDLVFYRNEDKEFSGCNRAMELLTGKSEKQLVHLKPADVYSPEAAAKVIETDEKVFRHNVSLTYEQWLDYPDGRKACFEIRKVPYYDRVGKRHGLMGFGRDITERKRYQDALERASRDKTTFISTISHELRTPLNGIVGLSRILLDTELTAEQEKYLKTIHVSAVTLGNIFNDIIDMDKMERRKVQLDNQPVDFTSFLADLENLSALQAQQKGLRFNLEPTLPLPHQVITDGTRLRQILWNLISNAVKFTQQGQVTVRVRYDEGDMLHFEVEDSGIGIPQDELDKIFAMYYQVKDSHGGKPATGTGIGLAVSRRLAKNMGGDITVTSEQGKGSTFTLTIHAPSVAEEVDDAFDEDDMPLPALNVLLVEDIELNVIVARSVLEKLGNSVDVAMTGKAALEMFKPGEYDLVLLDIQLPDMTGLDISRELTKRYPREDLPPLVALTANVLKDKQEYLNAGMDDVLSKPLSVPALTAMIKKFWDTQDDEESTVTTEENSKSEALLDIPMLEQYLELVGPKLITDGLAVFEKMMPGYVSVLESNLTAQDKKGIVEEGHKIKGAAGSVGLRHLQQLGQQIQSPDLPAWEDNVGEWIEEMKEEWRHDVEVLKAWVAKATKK

These are yes or no findings as the source states them, for the method shown. A result given as binding can be weak or reduced; the word gives no strength. Tags and fused reporters may be left off the sequences shown.

What all share (test): two-hybrid; Cya-based bacterial two-hybrid (BACTH) in E. coli BTH101, LB at 30 °C, 0.5 mM IPTG for 1 h, β-galactosidase in liquid culture; threefold above vector alone scored positive; binder written as the T18 fusion, target as the T25 fusion
Assay [1] has as its target T1, PspB fused to a Cya fragment at its C-terminus (PspB–T25 or PspB–T18) (E. coli) (UniProt P0AFM9).
T1 sequence: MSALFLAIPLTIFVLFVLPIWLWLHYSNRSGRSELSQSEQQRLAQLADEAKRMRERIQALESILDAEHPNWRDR

Assay [2] addresses T2, PspC fused to a Cya fragment (T25–PspC or T18–PspC) (E. coli) (UniProt P0AFN2).
T2 sequence: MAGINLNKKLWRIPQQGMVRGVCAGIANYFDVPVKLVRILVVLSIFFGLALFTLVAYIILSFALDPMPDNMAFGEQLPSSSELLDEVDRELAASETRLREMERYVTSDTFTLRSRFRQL

In assay [3] the target is T3, PspG fused to a Cya fragment at its C-terminus (PspG–T25 or PspG–T18) (E. coli) (UniProt P32696).
T3 sequence: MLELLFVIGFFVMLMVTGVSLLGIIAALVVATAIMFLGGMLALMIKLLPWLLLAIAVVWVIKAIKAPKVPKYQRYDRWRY

Assay [4] addresses T4, PspC_(1–68) fused to a Cya fragment at its N-terminus (E. coli) (UniProt P0AFN2).
T4 sequence: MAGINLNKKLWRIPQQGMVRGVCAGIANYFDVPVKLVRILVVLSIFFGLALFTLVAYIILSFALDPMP

The target of assay [5] is T5, PspC_(40–119) fused to a Cya fragment at its N-terminus (E. coli) (UniProt P0AFN2).
T5 sequence: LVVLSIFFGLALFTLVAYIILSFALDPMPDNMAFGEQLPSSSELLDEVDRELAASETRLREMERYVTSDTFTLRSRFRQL

As to “PspC_(40–119) leucine zipper mutant fused to T18 at its C-terminus (from UniProt P0AFN2) (domain or fragment)”, the binding entry in assay [1] was “binds”.

For the substance “ArcB^LeuZm (leucine zipper mutant of ArcB), T18 fusion (from UniProt P0AEC3)”, the binding result in assay [1] is “binds weakly”; in assay [2], “binds weakly”; in assay [3] it was “no binding”.

On to “PspB^LeuZm (leucine zipper mutant of PspB) fused to T18 at its C-terminus (from UniProt P0AFM9)”, for which the binding result in assay [1], in assay [2], in assay [4] and in assay [5] was “binds” in each case.

For “PspC^LeuZm (leucine zipper mutant of full-length PspC), T18 fusion (from UniProt P0AFN2)”, the binding entry in assay [1] is on record as “binds”; in assay [3], “binds weakly”.
